Source: PMC9535003
These are yes or no findings as the source states them, for the method shown. Binding seen in cells or lysates may run through a third protein. Binding can be weak; no strength is given. Where a sequence is shown, tags or fusion partners need not be part of it. Blank lines part the entries; values can stand above or below the molecule they belong to.

Protein sequences, listed by entry. Tags and fused reporters are not part of them. Lines headed by an entry give the natural chain unless they say otherwise; changes in a name come on top.
UniProt Q9LID3: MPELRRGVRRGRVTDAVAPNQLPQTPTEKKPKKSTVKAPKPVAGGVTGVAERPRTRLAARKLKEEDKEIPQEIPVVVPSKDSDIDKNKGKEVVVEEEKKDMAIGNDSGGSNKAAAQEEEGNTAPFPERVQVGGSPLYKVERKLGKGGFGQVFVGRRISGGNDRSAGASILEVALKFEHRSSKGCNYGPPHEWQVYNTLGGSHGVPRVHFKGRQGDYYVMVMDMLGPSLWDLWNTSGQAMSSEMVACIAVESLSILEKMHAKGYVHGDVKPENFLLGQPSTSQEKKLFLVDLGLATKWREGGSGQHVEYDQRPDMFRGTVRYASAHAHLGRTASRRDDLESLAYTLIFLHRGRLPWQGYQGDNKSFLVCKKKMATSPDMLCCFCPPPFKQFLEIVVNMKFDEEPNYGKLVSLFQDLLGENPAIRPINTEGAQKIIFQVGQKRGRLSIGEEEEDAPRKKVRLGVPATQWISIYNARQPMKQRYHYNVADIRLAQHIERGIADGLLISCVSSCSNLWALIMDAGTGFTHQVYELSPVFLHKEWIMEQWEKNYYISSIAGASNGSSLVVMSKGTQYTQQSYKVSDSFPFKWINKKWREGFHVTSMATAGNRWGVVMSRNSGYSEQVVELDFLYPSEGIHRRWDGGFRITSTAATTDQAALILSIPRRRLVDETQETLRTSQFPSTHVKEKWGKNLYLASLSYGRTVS
UniProt Q9FK52: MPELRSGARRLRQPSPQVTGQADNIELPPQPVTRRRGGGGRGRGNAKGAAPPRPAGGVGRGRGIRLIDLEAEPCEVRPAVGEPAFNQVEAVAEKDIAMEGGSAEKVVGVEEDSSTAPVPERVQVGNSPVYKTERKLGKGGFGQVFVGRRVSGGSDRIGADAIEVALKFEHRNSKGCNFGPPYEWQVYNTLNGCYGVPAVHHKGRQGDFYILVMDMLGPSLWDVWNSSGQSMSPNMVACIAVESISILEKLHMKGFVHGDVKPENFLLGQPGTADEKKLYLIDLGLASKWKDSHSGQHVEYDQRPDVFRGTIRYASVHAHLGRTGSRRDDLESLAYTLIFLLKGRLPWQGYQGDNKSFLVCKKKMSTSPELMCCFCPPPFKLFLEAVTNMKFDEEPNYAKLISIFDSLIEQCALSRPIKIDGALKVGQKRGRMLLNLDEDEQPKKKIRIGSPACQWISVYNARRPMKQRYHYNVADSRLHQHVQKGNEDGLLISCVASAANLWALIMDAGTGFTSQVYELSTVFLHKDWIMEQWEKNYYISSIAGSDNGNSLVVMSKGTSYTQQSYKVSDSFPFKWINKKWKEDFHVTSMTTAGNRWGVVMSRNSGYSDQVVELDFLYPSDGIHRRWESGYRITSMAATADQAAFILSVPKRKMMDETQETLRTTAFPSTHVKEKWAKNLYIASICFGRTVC
UniProt Q9SQR8: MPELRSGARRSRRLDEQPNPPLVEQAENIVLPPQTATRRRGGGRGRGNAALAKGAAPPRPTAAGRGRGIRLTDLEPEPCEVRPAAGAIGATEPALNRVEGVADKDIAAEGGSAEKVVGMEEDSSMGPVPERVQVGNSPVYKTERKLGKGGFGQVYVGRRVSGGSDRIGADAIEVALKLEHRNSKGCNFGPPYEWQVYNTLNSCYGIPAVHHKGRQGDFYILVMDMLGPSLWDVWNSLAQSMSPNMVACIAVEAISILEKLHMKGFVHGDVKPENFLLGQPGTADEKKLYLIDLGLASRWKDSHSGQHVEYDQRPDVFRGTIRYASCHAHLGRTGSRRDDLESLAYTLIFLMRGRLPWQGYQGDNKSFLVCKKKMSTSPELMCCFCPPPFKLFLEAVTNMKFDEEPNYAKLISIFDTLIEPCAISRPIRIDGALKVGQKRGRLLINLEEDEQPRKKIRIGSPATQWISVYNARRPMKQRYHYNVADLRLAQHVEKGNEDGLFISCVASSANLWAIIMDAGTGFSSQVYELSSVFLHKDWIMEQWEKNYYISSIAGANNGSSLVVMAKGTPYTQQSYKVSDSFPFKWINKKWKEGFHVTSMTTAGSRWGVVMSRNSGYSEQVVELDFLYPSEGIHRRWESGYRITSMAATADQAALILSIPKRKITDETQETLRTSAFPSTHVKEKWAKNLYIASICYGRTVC

Assays:
PRR9-GFP (Arabidopsis) = target: T1, PRR9-GFP (Arabidopsis) (UniProt Q8L500); experiment: co-IP; competitive co-IP: PRR9-GFP immunoprecipitated, TPL-FLAG or PPK1-Flag co-expressed with or without CRY2-HA; blots with GFP, Flag and HA antibodies
T1 sequence: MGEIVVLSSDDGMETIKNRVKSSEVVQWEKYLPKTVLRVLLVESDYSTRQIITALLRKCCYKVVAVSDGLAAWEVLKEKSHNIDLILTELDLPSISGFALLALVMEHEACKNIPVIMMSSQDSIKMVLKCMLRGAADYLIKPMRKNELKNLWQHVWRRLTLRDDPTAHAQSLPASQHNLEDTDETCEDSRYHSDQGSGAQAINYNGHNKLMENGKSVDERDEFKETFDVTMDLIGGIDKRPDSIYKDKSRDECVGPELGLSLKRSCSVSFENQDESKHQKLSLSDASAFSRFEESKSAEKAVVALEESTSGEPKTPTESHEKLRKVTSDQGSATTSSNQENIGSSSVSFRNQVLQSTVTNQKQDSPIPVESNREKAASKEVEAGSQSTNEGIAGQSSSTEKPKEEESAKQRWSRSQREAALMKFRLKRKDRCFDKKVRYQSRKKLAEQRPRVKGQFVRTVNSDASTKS

PRR9-MBP (Arabidopsis) = target: T2, PRR9-MBP (Arabidopsis) (UniProt Q8L500); experiment: pull-down; recombinant PRR9-MBP or MBP resin incubated with extracts of tobacco leaves or Arabidopsis seedlings, 4 C, 2 h; pulled-down proteins detected with GFP antibody; GFP-CRY2 seedlings exposed to dark, red or blue light (10 umol m^-2 s^-1) for 10 min; only the target purified
T2 sequence: T1 sequence

PRR9-nYFP (Arabidopsis) = target: T3, PRR9-nYFP (Arabidopsis) (UniProt Q8L500); experiment: split reporter; BiFC: nYFP and cYFP fusions and H2B-mCherry co-infiltrated (5:5:1) into N. benthamiana leaves for 3 days; confocal microscopy
T3 sequence: T1 sequence

PPK1-GFP (Arabidopsis) = experiment: co-IP; co-expression in N. benthamiana leaves, 3 days; GFP-Trap beads, 4 C, 1 h, 150 mM NaCl, 0.2% NP-40; blots with GFP and HA antibodies; for CRY2-GFP and PRR9-HA also after 10 min dark, red or blue light (10 umol m^-2 s^-1)
[1] = target: PPK1^K175A-GFP (Arabidopsis); experiment: as above
PPK2-GFP (Arabidopsis) = experiment: as above
PPK3-GFP (Arabidopsis) = experiment: as above
PPK4-GFP (Arabidopsis) = experiment: as above

binding (PRR9-GFP (Arabidopsis)): binds
Molecule: PPK1-Flag (Arabidopsis) (enzyme)

binding (PRR9-MBP (Arabidopsis)): binds
Molecule: PPK1-GFP (Arabidopsis) (enzyme)

binding (PRR9-nYFP (Arabidopsis)): binds
Molecule: PPK1-cYFP (from UniProt Q9LID3) (enzyme)

binding (PRR9-MBP (Arabidopsis)): binds
Molecule: PPK2-GFP (Arabidopsis) (enzyme)

binding (PRR9-nYFP (Arabidopsis)): binds
Molecule: PPK2-cYFP (from UniProt Q9FK52) (enzyme)

binding (PRR9-MBP (Arabidopsis)): binds
Molecule: PPK3-GFP (Arabidopsis) (enzyme)

binding (PRR9-nYFP (Arabidopsis)): binds
Molecule: PPK3-cYFP (from UniProt Q9SQR8) (enzyme)

binding (PRR9-MBP (Arabidopsis)): binds
Molecule: PPK4-GFP (Arabidopsis) (enzyme)

binding (PRR9-nYFP (Arabidopsis)): binds
Molecule: PPK4-cYFP (Arabidopsis) (enzyme)

binding (PPK1-GFP (Arabidopsis)): binds
binding [1]: binds
binding (PPK2-GFP (Arabidopsis)): binds
binding (PPK3-GFP (Arabidopsis)): binds
binding (PPK4-GFP (Arabidopsis)): binds
B1: PRR9-HA (protein, UniProt Q8L500 1-468)
chain: T1 sequence
